Test results taken from patent publication US9119858B2, “Compositions and methods for treating or preventing anthracycline induced cardiotoxicity” (Genesys Research Institute, priority 2012, dated 2015).
At least one compound was matched to its structure with a doubt left.

Test system: doxorubicin injured mice
Experiment: Cardiac output by hemodynamic measurements in doxorubicin injured mice treated with Lapatinib or Rapamycin
Format: in vivo
Conditions: DOX-injured mice treated with Rapamycin 6 mg/kg i.p. daily
Description: After the completion of doxorubicin treatment, mice were subsequently treated with either Lapatinib alone (100 mg/kg, oral gavage, daily) or Rapamycin alone (6 mg/kg, i.p., daily). Survival was monitored. Cardiac function was assessed by hemodynamic measurements.

Compound: CO[C@H]1C[C@@H]2CC[C@@H](C)[C@@](O)(O2)C(=O)C(=O)N2CCCC[C@H]2C(=O)O[C@H]([C@H](C)C[C@@H]2CC[C@@H](O)[C@H](OC)C2)CC(=O)[C@H](C)/C=C(\C)[C@@H](O)[C@@H](OC)C(=O)[C@H](C)C[C@H](C)/C=C/C=C/C=C/1C [Rapamycin]
- decrease in cardiac function (cardiac output): not observed
